# Laboratory results: paper PMC7819943, “Rice protein-binding microarrays: a tool to detect cis-acting elements near promoter regions in rice”
# Amino acid sequences for entries named in this document (tags omitted).
# UniProt Q0JBA9, entry or part of it: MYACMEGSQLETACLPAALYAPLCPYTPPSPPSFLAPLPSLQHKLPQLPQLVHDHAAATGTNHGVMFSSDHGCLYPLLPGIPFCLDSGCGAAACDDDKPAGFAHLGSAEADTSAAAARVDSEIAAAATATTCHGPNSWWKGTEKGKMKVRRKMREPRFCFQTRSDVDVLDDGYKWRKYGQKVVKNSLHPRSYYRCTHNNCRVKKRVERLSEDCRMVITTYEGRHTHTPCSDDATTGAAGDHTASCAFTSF
# Some of the results follow.
# Molecular target: OsWRKY34 (Oryza sativa, UniProt Q0JBA9 1-250)
# Experiment: protein-binding microarray (RPBM); PBS, 2% BSA, 51.3 ng/ul salmon testes DNA, 50 uM zinc acetate, 200 nM TF, 25 C, 1 h; high values mean tight binding
# Conditions: protein: recombinant; tags: N-terminal polyhistidine and DsRed monomer fusion (pET32a); label: CyDye5-dUTP incorporated in the synthesized complementary strand; 3' TTTTT single-stranded linker to array surface; dsDNA, one strand shown
# Method in brief: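 Polyhistidine-tagged DsRed fusions of transcription factors, joined at the N-terminus, were expressed in E. coli BL21-CodonPlus and isolated on Ni–NTA. They were incubated at 200 nM for 1 h at 25 °C on a custom Agilent array, double-stranded and BSA-blocked, in PBS with 2% BSA, salmon testes DNA and 50 µM zinc acetate. The binding signal is per-feature fluorescence intensity (arbitrary units) read on an Axon 4000B scanner after washing.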
row,Sequence,binding signal
1,GGCCCTATCTTGCACCAAATTGCCAACATAAACTCAATCACGGAGTCACCTAGTGCAG,9720 fluorescence intensity (a.u.)
2,GTTCTTCCTCTCTGATTGCTCAACGACAAGTGGTCAACACCGGAGTCACCTAGTGCAG,8220 fluorescence intensity (a.u.)
3,CTCTCTCTCTCTCTCTCTCTCTCTCTCGATGCCGACGCTTCGGAGTCACCTAGTGCAG,11000 fluorescence intensity (a.u.)
4,CGTCGCCCGAGAGCGAACGGCCGTCTGCCACGTCATTTTCCGGAGTCACCTAGTGCAG,9570 fluorescence intensity (a.u.)
5,GCCATCCCTAGCATGTCAGTTGACACTGCTGGTCTTCTTCCGGAGTCACCTAGTGCAG,8220 fluorescence intensity (a.u.)
6,GAATACGGTCACTCCTGACAGCTTATTTTCGAGGGCCTTTCGGAGTCACCTAGTGCAG,8470 fluorescence intensity (a.u.)
7,TGAGGTGGGGCGGTCGGATCTTGCCGGGATGGGCGAGCTTCGGAGTCACCTAGTGCAG,10700 fluorescence intensity (a.u.)
8,CTGCGACCATTCTGTTATGCCATCTCCAGATATATTGATTCGGAGTCACCTAGTGCAG,12500 fluorescence intensity (a.u.)
9,AACTCGCTAACCATTTTTTTTCTTTTTTTTTGATTTGTTACGGAGTCACCTAGTGCAG,10200 fluorescence intensity (a.u.)
10,CACCGCGCCACCGCATCGCCCGTCGTCGGCCGCCCTTTCCCGGAGTCACCTAGTGCAG,12000 fluorescence intensity (a.u.)
11,CTCAATTCCGCCGTCAAAGTCTTCGATTGATCCGATCTCTCGGAGTCACCTAGTGCAG,8430 fluorescence intensity (a.u.)
12,TACTCGATCCTGCCTTCCTTGACCTTTTTTTCTTTTCTTCCGGAGTCACCTAGTGCAG,9710 fluorescence intensity (a.u.)
13,CACACTCTCCATTTTTACTTGGGCCCCACCTGCCAATGTCCGGAGTCACCTAGTGCAG,8850 fluorescence intensity (a.u.)
14,TGGTGGTGTGTATGTATCGAGAAAAAAATCATGTACCTTGCGGAGTCACCTAGTGCAG,10400 fluorescence intensity (a.u.)
15,TTGAGTAGTTTCCACATGGTTAGATATTGTTTCATTTAACCGGAGTCACCTAGTGCAG,8790 fluorescence intensity (a.u.)
16,TTTATTTCTTCTGTTTTATAGTCTGATGCATTTTTGTTAACGGAGTCACCTAGTGCAG,8540 fluorescence intensity (a.u.)
17,ACCACCACCACCACGGCGGCGGCCGCGGCCCGCTTCACCTCGGAGTCACCTAGTGCAG,8230 fluorescence intensity (a.u.)
18,CCATCATCTCTCGATCCATCTCCAGCAAGTTACCTATAAACGGAGTCACCTAGTGCAG,9580 fluorescence intensity (a.u.)
19,ATTTCTCATGCCAATTCGGCCCACACCAACCAACCCCGCACGGAGTCACCTAGTGCAG,11500 fluorescence intensity (a.u.)
20,CAATTCGTCCTGATCTGGTTGTCCAAGCTTGGGATTCGCCCGGAGTCACCTAGTGCAG,8760 fluorescence intensity (a.u.)
21,TTTTTTATCCGGGCTTGAGGCAACAGACTCTTCCCCTTCGCGGAGTCACCTAGTGCAG,8030 fluorescence intensity (a.u.)
22,GAGAGTTCCTGGTCCACCACTTCGCGGATTACTGCGCCGACGGAGTCACCTAGTGCAG,11200 fluorescence intensity (a.u.)
23,ACACACACTAGCTACTTCTACTTCTATCATACCAAACAAACGGAGTCACCTAGTGCAG,10500 fluorescence intensity (a.u.)
24,CTTATCCCCTTGCGTGCCTCATCTTCCTTATCCTCTTGCACGGAGTCACCTAGTGCAG,9990 fluorescence intensity (a.u.)
25,GTCCATTGTTTTTTTCTTTTTGGATTTTCTCCTTTTCTTACGGAGTCACCTAGTGCAG,10700 fluorescence intensity (a.u.)
26,GATGTGACCCTTCTTCTACCTCGCGACCTCTCATCTATCGCGGAGTCACCTAGTGCAG,10400 fluorescence intensity (a.u.)
27,CCATCCATCCCTCCAGCGAGCAGGGCGGGCGCCGTCGTTCCGGAGTCACCTAGTGCAG,8340 fluorescence intensity (a.u.)

# A different layout for some results above.
row	Sequence	binding signal
6	GAATACGGTCACTCCTGACAGCTTATTTTCGAGGGCCTTTCGGAGTCACCTAGTGCAG	8470 fluorescence intensity (a.u.)
7	TGAGGTGGGGCGGTCGGATCTTGCCGGGATGGGCGAGCTTCGGAGTCACCTAGTGCAG	10700 fluorescence intensity (a.u.)
8	CTGCGACCATTCTGTTATGCCATCTCCAGATATATTGATTCGGAGTCACCTAGTGCAG	12500 fluorescence intensity (a.u.)

# More results

row,Sequence,binding signal
1,GTAGTGATTCTTGCTCGCTTTGTTTCTCTGAATCCTTGCACGGAGTCACCTAGTGCAG,10200 fluorescence intensity (a.u.)
2,GGGTGAGTGCGCGTGCGTTGTGAGTGTTTGTATTGTACTGCGGAGTCACCTAGTGCAG,9790 fluorescence intensity (a.u.)
3,GAAGAAGAGGCGGGCGGGCGGGCGCGGGGTGAAGGCAGGACGGAGTCACCTAGTGCAG,11800 fluorescence intensity (a.u.)
4,AGTTCTTCTCCACCACAAGTTTCGCGCGCTGCTCGCTCGCCGGAGTCACCTAGTGCAG,8480 fluorescence intensity (a.u.)
5,TGCCCGCGTCTTCGCCGCTCGCCGCCGTCTCTGCTTGCCTCGGAGTCACCTAGTGCAG,9960 fluorescence intensity (a.u.)
6,CATCAAGTCATCAACAGTCACATGCCCTGCTAGCTAGTACCGGAGTCACCTAGTGCAG,8140 fluorescence intensity (a.u.)
7,ACATGGCCATATTATAATGTTGGTAACACACGTGAGGTTGCGGAGTCACCTAGTGCAG,8470 fluorescence intensity (a.u.)
8,AACCTGATGTTTCTTTTTTTTTCTTTTGACTTCTAACTTGCGGAGTCACCTAGTGCAG,8780 fluorescence intensity (a.u.)
9,TGGGGTATTCTAGTATTCTGGTGTTTGTATTGATATATGTCGGAGTCACCTAGTGCAG,10600 fluorescence intensity (a.u.)
10,TCACTGTCTCTCACCCTCCCAACGCTTAGACATTTCAACGCGGAGTCACCTAGTGCAG,8070 fluorescence intensity (a.u.)
11,ATTGTCTTGGCTGCTGTCTTTATAGTATTCACTCATCTGCCGGAGTCACCTAGTGCAG,18500 fluorescence intensity (a.u.)
12,GAGAGAGAGGAAATGCGGGCGGGGTGGCGGCCATGGCCAACGGAGTCACCTAGTGCAG,10800 fluorescence intensity (a.u.)
13,CAGATGGCGGCGCTGGTGTGGGAGGGAGAAGGTGCGGGGACGGAGTCACCTAGTGCAG,9040 fluorescence intensity (a.u.)
14,GTACTGTTTTTATGCTCTTGTTATATAATTGTCATGATGACGGAGTCACCTAGTGCAG,8740 fluorescence intensity (a.u.)
15,AACTTCCTCGATAGACATTCCACACATGTTGTTCATGTTACGGAGTCACCTAGTGCAG,9230 fluorescence intensity (a.u.)
16,AAAACACAACTTTGACTTCTTGTTTTATAAAAATATTTATCGGAGTCACCTAGTGCAG,8720 fluorescence intensity (a.u.)
17,TCAGTAAGCATTTTTGTGGTCCTTTACTCCTTACTAATCTCGGAGTCACCTAGTGCAG,10900 fluorescence intensity (a.u.)
18,GGGTGGTGATGCATGTGCTTCTACAATCATGTATTGGTTACGGAGTCACCTAGTGCAG,9440 ± 630 fluorescence intensity (a.u.)
19,TTTAATTTAGTCTCATTGCTTCCGATCTATGTAAACAATACGGAGTCACCTAGTGCAG,8360 fluorescence intensity (a.u.)
20,AACTTCTCTTCTAATTTTCTCCGAAACTACTGCTCCAATGCGGAGTCACCTAGTGCAG,8510 fluorescence intensity (a.u.)
21,AGCGCCTCGGGCGCACGGGAGTGGCGTGGTGTGGTGGGGTCGGAGTCACCTAGTGCAG,8170 fluorescence intensity (a.u.)
22,CGTGCAGTTGTATGATTTTCGGGTCCGGTTTTCCTTATAACGGAGTCACCTAGTGCAG,11200 fluorescence intensity (a.u.)
23,CTCTCTCTCTCATTCTCTCTCTCTCTCTCTGCCCCTTTTCCGGAGTCACCTAGTGCAG,8200 fluorescence intensity (a.u.)
24,CAAAACTGCCACCATCCACCCAGAACTGGGTCATCATCACCGGAGTCACCTAGTGCAG,8130 fluorescence intensity (a.u.)
25,GTGTCTGTTTGTGTGTGTAAATCCGATATTACCTGTAATCCGGAGTCACCTAGTGCAG,9760 fluorescence intensity (a.u.)
26,TTGCAGTTTTGTTTTGCTGCAGGAAAATTCGGATTTGTTTCGGAGTCACCTAGTGCAG,8240 fluorescence intensity (a.u.)
27,AGGCTTTCACATTTAACTATTTTATTTTGTCGACATCGTTCGGAGTCACCTAGTGCAG,9090 fluorescence intensity (a.u.)
